PubChem BioAssay AID1259254, NCATS, 2017
Screen: 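Finding genes that stop cells copying their DNA twice in one cycle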 (primary screen). System: human HCT116 colorectal cancer cells. Knock-down reagent: single siRNA against human genes. Duration: 3 days. Measured: 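Imaged Hoechst DNA stain sorts each cell into a cycle phase by DNA amount; per plate, G2 fraction set to 0% for non-targeting and 100% for GMNN siRNA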. Scale: G2 robust z-score and G2 cells, % of GMNN control: higher = more G2 cells, more excess DNA replication. Rule for the call: 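Active siRNAs have a G2 robust z of 5 or more median absolute deviations over the median, which in these data means about 38% or higher of GMNN control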.
In all, the deposit lists about 59,000 reagents; shown is a random part of them. About 1,550 of all reagents (2.6%) count as active. 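G2 share is only a proxy for re-replication; each gene was hit by three separate siRNAs, and active genes were retested.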 Entries without a mark were called inactive. Reagents against one gene are numbered here. Not all columns of the deposit are shown. Not given: the amount of reagent.

With ZC2HC1C #1, how do the results read?
G2 robust z-score: 0.743; G2 cells, % of GMNN control: 8.19

For ZC2HC1C #2, what does the deposit list?
G2 robust z-score: 0.807; G2 cells, % of GMNN control: 8.65

Which result is listed for ZC2HC1C #3?
G2 robust z-score: -0.187; G2 cells, % of GMNN control: 1.65

How did the screen score MRPS7 #1?
G2 robust z-score: -0.173; G2 cells, % of GMNN control: 1.75

With MRPS7 #2, what was measured?
G2 robust z-score: -0.489; G2 cells, % of GMNN control: -0.471

Which result is listed for MRPS7 #3?
G2 robust z-score: 3.7; G2 cells, % of GMNN control: 29

What did the screen give for MESTP3 #1?
G2 robust z-score: 1.61; G2 cells, % of GMNN control: 14.3

With MESTP3 #2, what does the deposit list?
G2 robust z-score: 0.141; G2 cells, % of GMNN control: 3.96

Which result is listed for MESTP3 #3?
G2 robust z-score: 1.65; G2 cells, % of GMNN control: 14.6

What is on record for BORA #1?
G2 robust z-score: 0.75; G2 cells, % of GMNN control: 8.25

What did the screen give for BORA #2?
G2 robust z-score: -0.0975; G2 cells, % of GMNN control: 2.28

For BORA #3, how do the results read?
G2 robust z-score: 3; G2 cells, % of GMNN control: 24.1

With STK31 #1, what was measured?
G2 robust z-score: -1.07; G2 cells, % of GMNN control: -4.54

What is on record for STK31 #2?
G2 robust z-score: -0.176; G2 cells, % of GMNN control: 1.73

Which result is listed for STK31 #3?
G2 robust z-score: 5.26 (active); G2 cells, % of GMNN control: 40

Which result is listed for C8orf82 #1?
G2 robust z-score: -1.38; G2 cells, % of GMNN control: -6.74

With C8orf82 #2, what does the deposit list?
G2 robust z-score: -0.801; G2 cells, % of GMNN control: -2.67

For C8orf82 #3, what was measured?
G2 robust z-score: 0.104; G2 cells, % of GMNN control: 3.7

What did the screen give for SF3B4 #1?
G2 robust z-score: 3.32; G2 cells, % of GMNN control: 26.3

What is on record for SF3B4 #2?
G2 robust z-score: -1.53; G2 cells, % of GMNN control: -7.81

For SF3B4 #3, how do the results read?
G2 robust z-score: 1.38; G2 cells, % of GMNN control: 12.7

With CSPG4P5 #1, how do the results read?
G2 robust z-score: 0.134; G2 cells, % of GMNN control: 3.91

For CSPG4P5 #2, how do the results read?
G2 robust z-score: -0.421; G2 cells, % of GMNN control: 0.00465

How did the screen score CSPG4P5 #3?
G2 robust z-score: -0.0608; G2 cells, % of GMNN control: 2.54

What did the screen give for TFB2M #1?
G2 robust z-score: 0.43; G2 cells, % of GMNN control: 5.99

For TFB2M #2, what does the deposit list?
G2 robust z-score: -0.595; G2 cells, % of GMNN control: -1.22

For TFB2M #3, how do the results read?
G2 robust z-score: 1.18; G2 cells, % of GMNN control: 11.3

Which result is listed for RIMOC1 #1?
G2 robust z-score: -0.267; G2 cells, % of GMNN control: 1.09

For RIMOC1 #2, how do the results read?
G2 robust z-score: -0.597; G2 cells, % of GMNN control: -1.23

What did the screen give for RIMOC1 #3?
G2 robust z-score: 0.238; G2 cells, % of GMNN control: 4.64
